Reference: PubChem BioAssay AID587 (National Center for Advancing Translational Sciences (NCATS), 2007)
Out of some 59,000 compounds screened, about 35 (0.06%) were called active. Inconclusive means that the source gave no clear call. Such entries were picked first, then a sample of the others. Rule as the data show it: active = max dye-equivalent concentration above about 10 nM; inconclusive = between about 1.1 nM and that limit; inactive = weaker than that.

Assay: qHTS Assay for Spectroscopic Profiling in Texas Red Spectral Region
Conditions: Compound fluorescence, Texas Red channel, 547/618 nm; active compounds read high
In short: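 Pin-transferred compounds and Texas Red standards go into 100 mM Tris buffer, pH 8.0. After 15 min at room temperature, plates are imaged with 547/618 nm filters. Each value is a dye-equivalent concentration derived from the per-plate dye curve.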

SMILES	max dye-equivalent concentration
COc1cc(OC)cc(-c2cc3nc4c(c(N5CCN(c6cnccn6)CC5)n3n2)CCCC4)c1	inconclusive: 1.6 nM
O=C1/C(=C/c2ccccc2)[C@@H](NC2CCCCC2)c2ccccc21	inconclusive: 2.2 nM
Cn1c(=O)c2c(nc(NCCNC(=O)c3ccco3)n2Cc2ccc(Cl)cc2Cl)n(C)c1=O	inconclusive: 2.5 nM
OC[C@@H](O)CNc1ncnc2ccccc12	inactive
O=C(COc1ccc2c(c1)OCO2)NC12CC3CC(CC(C3)C1)C2	inconclusive: 3.2 nM
Cc1ccc(CS(=O)(=O)CCC(=O)NCc2ccccn2)cc1	inconclusive: 1.1 nM
COc1ccc(C2(CNC(=O)c3ccc(Br)o3)CCOCC2)cc1	inconclusive: 1.1 nM
CC(C)c1ccc(NC(=O)NC2CCCCC2)cc1	inactive
COc1ccc(NC(=O)COC(=O)c2ccc(N3CCCC3=O)cc2)cc1OC	inconclusive: 1.5 nM
CSC(N)=NCCC[C@@H](N)C(=O)O	inactive
CC(C)CCNc1nc2c(c(=O)n(Cc3cccc(F)c3)c(=O)n2C)n1C	inconclusive: 1.5 nM
CC1(C)C(N(O)C(=O)Nc2ccccc2)N(c2cccc(Cl)c2)C(=O)N1O (centres undefined)	inconclusive: 1.2 nM
COc1cccc(-c2cc(C(=O)Nc3c(C)nn(Cc4ccccc4C)c3C)no2)c1	inconclusive: 1.5 nM
CN(C)CCCNc1c2c(c(C#N)c3nc4ccccc4n13)CCC2	inconclusive: 1.2 nM
CC1CN(C(=O)c2cn3ccccc3n2)CC(C)O1 (centres undefined)	inconclusive: 1.1 nM
Cc1ccc(S(=O)(=O)Nc2ccccc2C(N)=O)cc1	inconclusive: 1.1 nM
O=C(NCc1ccccn1)C1COc2ccccc2O1 (centres undefined)	inconclusive: 1.2 nM
O=C(Nc1c2c(nn1-c1ccc(Cl)cc1)CS(=O)(=O)C2)c1ccc2c(c1)OCO2	inconclusive: 1.1 nM
CC1=CC(C)(C)N2C(=O)C3(SCC(=O)N3c3ccc(O)cc3)c3cc(C)cc1c32 (centres undefined)	inconclusive: 1.4 nM
COc1ccc(C)cc1NC(=O)CCC(=O)Nc1ccc2nc(N3CCN(C)CC3)cc(C)c2c1	inconclusive: 1.5 nM
Cn1c(=O)c(-c2ccc(Cl)cc2)nc2cnc(Oc3cccc(Cl)c3)nc21	inconclusive: 1.2 nM
Cc1nnc(NCCc2ccccc2)n(N)c1=O	inconclusive: 1.1 nM
COc1ccc(OC)c(NS(=O)(=O)c2cc(OC)ccc2OC)c1	inconclusive: 1.5 nM
O=C(NC1CC1)c1cccc(Nc2ccc(-c3ccc4c(c3)OCCO4)nn2)c1	inconclusive: 1.3 nM

Reformatted field by field: part of the list above.
COc1cc(OC)cc(-c2cc3nc4c(c(N5CCN(c6cnccn6)CC5)n3n2)CCCC4)c1
  max dye-equivalent concentration: inconclusive: 1.6 nM
O=C1/C(=C/c2ccccc2)[C@@H](NC2CCCCC2)c2ccccc21
  max dye-equivalent concentration: inconclusive: 2.2 nM
